Laboratory results: PubChem BioAssay AID743121 (NCATS, 2013)

- Aim: 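Knock-downs that sensitise breast cancer cells to camptothecin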 (primary screen)
- Cell system: MDA-MB-231 cells, a human breast cancer line
- Reagents: single siRNA against human genes, 20 nM siRNA (0.8 pmol per well)
- Time to read-out: 120 h (drug added 48 h after transfection, read 72 h later)
- Treatment: camptothecin 20 nM (about EC30) for 72 h; vehicle 0.1% DMSO in parallel plates
- Measurement: 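Cell viability by ATP luminescence (CellTiter-Glo) as % of non-targeting siRNA wells, and the log2 ratio of viability without drug over viability with camptothecin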
- Direction: log2 vehicle/camptothecin viability: higher = stronger sensitisation to camptothecin; viability with camptothecin and viability without drug: higher = more viable cells
- Rule for the call: 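Each gene scored by redundant siRNA activity (RSA) over its individual siRNA ratios; a gene is called active at p < 0.001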
Shown is an unselected part of about 26,000 reagents. In the full data, 167 (0.63%) were called active. 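Calls are per gene from RSA p-values that are not deposited; an individual active-marked siRNA can sensitise only weakly.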 The numbers tell different reagents against one gene apart.

| target | siRNA no. | log2 vehicle/camptothecin viability | viability with camptothecin (% of control) | viability without drug (% of control) | Outcome |
| --- | --- | --- | --- | --- | --- |
| TRAF3IP3 (TRAF3 interacting protein 3) | 1 | 0.301 | 79.3 | 97.7 | inactive |
| TRAF3IP3 (TRAF3 interacting protein 3) | 2 | 0.212 | 71.2 | 82.5 | inactive |
| TRAF3IP3 (TRAF3 interacting protein 3) | 3 | 0.0477 | 43.8 | 45.3 | inactive |
| TRAF3IP3 (TRAF3 interacting protein 3) | 4 | 0.848 | 22.6 | 40.7 | inactive |
| LIG3 (DNA ligase 3) | 1 | -0.346 | 52.4 | 41.2 | inactive |
| LIG3 (DNA ligase 3) | 2 | -0.542 | 61 | 41.9 | inactive |
| LIG3 (DNA ligase 3) | 3 | 0.596 | 25.7 | 38.8 | inactive |
| LIG3 (DNA ligase 3) | 4 | -0.179 | 77.5 | 68.4 | inactive |
| PON2 (paraoxonase 2) | 1 | -0.0688 | 95.6 | 91.2 | inactive |
| PON2 (paraoxonase 2) | 2 | -0.0384 | 74.6 | 72.7 | inactive |
| PON2 (paraoxonase 2) | 3 | -0.528 | 74.1 | 51.4 | inactive |
| PON2 (paraoxonase 2) | 4 | -0.114 | 98 | 90.5 | inactive |
| GRHPR (glyoxylate and hydroxypyruvate reductase) | 1 | -0.062 | 67.4 | 64.6 | inactive |
| GRHPR (glyoxylate and hydroxypyruvate reductase) | 2 | -0.541 | 39.7 | 27.3 | inactive |
| GRHPR (glyoxylate and hydroxypyruvate reductase) | 3 | -0.454 | 93.3 | 68.1 | inactive |
| STRADA (STE20 related adaptor alpha) | 1 | -0.109 | 60.9 | 56.4 | inactive |
| STRADA (STE20 related adaptor alpha) | 2 | -0.049 | 94.4 | 91.2 | inactive |
| STRADA (STE20 related adaptor alpha) | 3 | -0.648 | 83.4 | 53.2 | inactive |
| STRADA (STE20 related adaptor alpha) | 4 | -0.253 | 83 | 69.6 | inactive |
| ATPSCKMT (ATP synthase c subunit lysine N-methyltransferase) | 1 | -0.0135 | 12.1 | 12 | inactive |
| ATPSCKMT (ATP synthase c subunit lysine N-methyltransferase) | 2 | 0.163 | 49.4 | 55.3 | inactive |
| ATPSCKMT (ATP synthase c subunit lysine N-methyltransferase) | 3 | -0.235 | 63.8 | 54.2 | inactive |
| ERBB3 (erb-b2 receptor tyrosine kinase 3) | 1 | -0.468 | 56.2 | 40.6 | inactive |
| ERBB3 (erb-b2 receptor tyrosine kinase 3) | 2 | -0.229 | 95.2 | 81.3 | inactive |
| ERBB3 (erb-b2 receptor tyrosine kinase 3) | 3 | -0.144 | 61.2 | 55.4 | inactive |
| ERBB3 (erb-b2 receptor tyrosine kinase 3) | 4 | 0.118 | 86.5 | 93.9 | inactive |
| ERBB3 (erb-b2 receptor tyrosine kinase 3) | 5 | -0.302 | 82.6 | 67 | inactive |
| ERBB3 (erb-b2 receptor tyrosine kinase 3) | 6 | -0.249 | 114 | 95.7 | inactive |
| ERBB3 (erb-b2 receptor tyrosine kinase 3) | 7 | -0.268 | 98 | 81.4 | inactive |
| ERBB3 (erb-b2 receptor tyrosine kinase 3) | 8 | -0.245 | 67.6 | 57.1 | inactive |
| RAD18 (RAD18 E3 ubiquitin protein ligase) | 1 | -0.791 | 58.3 | 33.7 | inactive |
| RAD18 (RAD18 E3 ubiquitin protein ligase) | 2 | -0.601 | 50.9 | 33.6 | inactive |
| RAD18 (RAD18 E3 ubiquitin protein ligase) | 3 | -0.039 | 55.7 | 54.2 | inactive |
| HERC4 (HECT and RLD domain containing E3 ubiquitin protein ligase 4) | 1 | -0.249 | 72.6 | 61.1 | inactive |
| HERC4 (HECT and RLD domain containing E3 ubiquitin protein ligase 4) | 2 | -0.658 | 71.6 | 45.4 | inactive |
| HERC4 (HECT and RLD domain containing E3 ubiquitin protein ligase 4) | 3 | -0.04 | 107 | 104 | inactive |
| ARR3 (arrestin 3) | 1 | 0.369 | 25.3 | 32.7 | inactive |
| ARR3 (arrestin 3) | 2 | -0.222 | 66.6 | 57.1 | inactive |
| ARR3 (arrestin 3) | 3 | -0.224 | 88.6 | 75.9 | inactive |
| NRK (Nik related kinase) | 1 | -0.5 | 95.9 | 67.8 | inactive |
| NRK (Nik related kinase) | 2 | 0.225 | 39 | 45.6 | inactive |
| NRK (Nik related kinase) | 3 | -0.028 | 77.8 | 76.3 | inactive |
| NRK (Nik related kinase) | 4 | -0.15 | 95 | 85.6 | inactive |
| BAG5 (BAG cochaperone 5) | 1 | 0.0638 | 74.9 | 78.3 | inactive |
| BAG5 (BAG cochaperone 5) | 2 | -0.149 | 91.8 | 82.8 | inactive |
| BAG5 (BAG cochaperone 5) | 3 | -0.246 | 25.2 | 21.2 | inactive |
| BAG5 (BAG cochaperone 5) | 4 | -0.0801 | 59.7 | 56.4 | inactive |
| MAS1 (MAS1 proto-oncogene, G protein-coupled receptor) | 1 | -0.196 | 119 | 104 | inactive |
| MAS1 (MAS1 proto-oncogene, G protein-coupled receptor) | 2 | -0.387 | 77.9 | 59.6 | inactive |
| MAS1 (MAS1 proto-oncogene, G protein-coupled receptor) | 3 | -0.358 | 56.3 | 43.9 | inactive |
| MAS1 (MAS1 proto-oncogene, G protein-coupled receptor) | 4 | -0.322 | 110 | 88.1 | inactive |
| MTA1 (metastasis associated 1) | 1 | -0.571 | 86.8 | 58.5 | inactive |
| MTA1 (metastasis associated 1) | 2 | 0.135 | 35.8 | 39.3 | inactive |
| MTA1 (metastasis associated 1) | 3 | -0.492 | 117 | 82.9 | inactive |
| PAQR4 (progestin and adipoQ receptor family member 4) | 1 | -0.0878 | 80.6 | 75.8 | inactive |
| PAQR4 (progestin and adipoQ receptor family member 4) | 2 | 0.353 | 67.9 | 86.8 | inactive |
| PAQR4 (progestin and adipoQ receptor family member 4) | 3 | -0.271 | 30.3 | 25.1 | inactive |
| PAQR4 (progestin and adipoQ receptor family member 4) | 4 | -0.38 | 50 | 38.4 | inactive |
| PRPS1 (phosphoribosyl pyrophosphate synthetase 1) | 1 | 0.386 | 8.21 | 10.7 | inactive |
| PRPS1 (phosphoribosyl pyrophosphate synthetase 1) | 2 | -0.201 | 52.9 | 46.1 | inactive |
| PRPS1 (phosphoribosyl pyrophosphate synthetase 1) | 3 | 0.00461 | 99 | 99.3 | inactive |
| PRPS1 (phosphoribosyl pyrophosphate synthetase 1) | 4 | -0.0413 | 102 | 99.4 | inactive |
| DUOX1 (dual oxidase 1) | 1 | 0.278 | 42.6 | 51.6 | inactive |
| DUOX1 (dual oxidase 1) | 2 | -0.202 | 111 | 96.8 | inactive |
| DUOX1 (dual oxidase 1) | 3 | -0.133 | 106 | 97 | inactive |
| DUOX1 (dual oxidase 1) | 4 | -0.228 | 43.3 | 37 | inactive |
| FNTA (farnesyltransferase, CAAX box, subunit alpha) | 1 | -0.43 | 74.2 | 55.1 | inactive |
| FNTA (farnesyltransferase, CAAX box, subunit alpha) | 2 | -0.602 | 73.4 | 48.3 | inactive |
| FNTA (farnesyltransferase, CAAX box, subunit alpha) | 3 | -0.353 | 95.3 | 74.6 | inactive |
| FNTA (farnesyltransferase, CAAX box, subunit alpha) | 4 | -0.646 | 65.4 | 41.8 | inactive |
